The values below come from patent US5189025A, “Methods for the treatment of malignant disease in patients using citrulline containing amino acid solutions” (priority 1990, dated 1993).

Data set [1] deals with polyamine levels (erythrocyte and tumor). Description: RBC and tumor polyamine levels in tumor-bearing rats infused with amino acid solutions (Example II, Table IV). It counts as in vivo, male Fisher 344 rats.
In data set [2] the test system is methylcholanthrene-induced fibrosarcoma. The following applies: 450 mg ornithine per 100 ml amino acid formulation.

As to `NCCC[C@H](N)C(=O)O` [ornithine], in data set [1] (Table IV summary), the “increase of putrescine levels within the tumors” value was “increased approximately three fold” and the “levels of all three polyamines in RBC's” value was “significantly increased”. The blood polyamine levels entry in data set [1] (infusion alone, not in combination with essential amino acids, experimental tumor system) is listed as “has not produced elevated blood polyamine levels”. Besides, in data set [2], the “toxicity of continuous infusion” value is recorded as “posed no toxicity problems”.
